From PubChem BioAssay AID1508600 (Functional Genomics Laboratory (NCATS/FGL), 2020)
Among all 53,000 sequences or so, about 3,700 (7%) were called active.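 Rule for the calls: active = gene knockdowns whose robust z-score for IL-1 alpha signal is at least 2 or at most -2, so actives lie on both sides; inactive = the rest.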 The list shows a part of the results.

Assay: Components of the Cytosolic LPS Sensing Pathway: Gene Identification via Genome-wide siRNA Screen;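 note: robust z of the log signal after scaling to non-targeting control siRNA wells of the plate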
Conditions: RAW264.7 macrophages, IL-1a HTRF, actives lie on both sides, screened at 100 nM (by protocol), cells primed 5 h with Pam3CSK4 first
Outline: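 Using IL-1a HTRF as read-out, the screen measured release from RAW264.7 cells after 48h siRNA knockdown (100 nM), 5 h Pam3CSK4 priming and 24 h cytosolic LipidA. Values were expressed relative to negative-control wells as robust z-scores.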

| Sequence | z-score |
| --- | --- |
| GGAGAGUCCAGUUUCCAUUTT against Rnf113a1 | inactive: 1.44 |
| GCGAACAACAAUGCUUAAATT against Mga | inactive: 0.0678 |
| GGGACUCCCUACAUUAAUCTT against Hddc3 | inactive: -0.659 |
| ACAUGUCCUCUGUGCAUAUTT against Cyp2d12 | inactive: 0.1 |
| GCAAAAAUGGAAGUAUCUGTT against Ube2dnl1 | inactive: 0.286 |
| GGAAUUAACAGAGAAGAAATT against Rgs13 | inactive: -0.848 |
| GGUGUAUGUCACCCUGACCTT against Sag | inactive: -0.617 |
| GGCCCUCCUCAAGACUCAUTT against Flywch2 | inactive: 0.0808 |
| GGCAGUUUGAGAUUGUGUCTT against Thbs2 | inactive: -0.00379 |
| GGAGGUACAUCAUCUACAATT against Tmem268 | inactive: -0.416 |
| GGAUAGCUUGUGUAGACACTT against Olfr263 | inactive: -0.571 |
| GACUAGAACAACAGAAAGUTT against Vax2 | inactive: 0.0607 |
| GGUUUUGAGCCUCAAAAAATT against Col6a2 | inactive: -0.0556 |
| CCACAUGUUCAGUUCUAAATT against Ddhd1 | inactive: 0.955 |
| GGAAAGUUGAUUCUUGUGUTT against Bmpr1a | inactive: -0.151 |
| GCGGGACUUUAUCUCAUCCTT against Mfsd4b1 | inactive: -0.815 |
| GGAAUAGAAGCACUGUGUGTT against Brs3 | inactive: -1.35 |
| GGAAGAGAUAAUGAACUUCTT against Dspp | inactive: 1.57 |
| GGCAAAGUAGAAGCUAAACTT against Pycrl | inactive: 0.373 |
| CCUUUUUCAUUGGCUGCCCTT against Psors1c2 | inactive: 1.1 |
| GGUGACCUGUAAAUGCAACTT against Trafd1 | inactive: -1.48 |
| GGAUAAACGGGACAAAGCATT against Hcls1 | inactive: -1.78 |

| Sequence | z-score |
| --- | --- |
| GGAGAUGCCAAAGUUAUGATT against Cmss1 | inactive: -0.751 |
| CCACUCUGAGAUAUCUGAATT against Olfr1277 | inactive: -0.128 |
| GCGGUUAACAGGCAUGCGATT against Emc2 | inactive: 1.66 |
| CGAUAUUUGGUGUGAAAUGTT against Tmem70 | inactive: -0.609 |
| GGUAUAAAGCAUGAGUAUCTT against Dstn | inactive: 0.547 |
| GGUCCUGUUUCCAAGAGUATT against Cnih1 | inactive: -1.34 |
| GGUACAGUUACGGUCAAAUTT against Zfp952 | inactive: 0.739 |
| GGAGGUCACACAUUCUGUGTT against Itgb7 | inactive: -0.325 |
| GGUAAGCUCCAAUUAUGCCTT against Ubr3 | inactive: 0.0463 |
| GCUCCGGAACAGAUAAAACTT against Kat14 | inactive: -0.485 |
| GGCUCUGAAUUAACUCCAGTT against Srpk3 | inactive: -0.654 |
| GGAUUCUGGUGCUUUCCAGTT against Ptk7 | inactive: -0.965 |
| CCAUCUUCAGCAGUGGAAATT against Rph3al | inactive: -1 |
| GCAAGAUCCGUACAUAGCATT against Wdr48 | inactive: -1.43 |
| GGAUCGCUCAUGGAUAUUUTT against Fus | inactive: -1.57 |
| GGACACAAGGUCGCCAUCUTT against Tcf7l1 | inactive: -0.502 |
| GCAGAAGUUCUACAAUUACTT against Mei4 | inactive: -1.55 |
| GAAAUGUCCAUCCAAAAGCTT against Sprr2k | inactive: 0.602 |
| GCUGAGUGCCAAGAUUAUATT against Gnpda1 | inactive: 0.319 |
| GGCAGAGAGCAACUAUAUUTT against C1galt1 | inactive: 0.892 |
| CCCUACACAGAUCACCUAATT against G0s2 | inactive: 0.0618 |
| GCCUUCAAGUAUUUGGAAGTT against Aff1 | inactive: 0.723 |

Retrieved one by one from above, six records:

| Sequence | z-score |
| --- | --- |
| GGAUUCUGGUGCUUUCCAGTT against Ptk7 | inactive: -0.965 |
| GGUAUAAAGCAUGAGUAUCTT against Dstn | inactive: 0.547 |
| GGCUCUGAAUUAACUCCAGTT against Srpk3 | inactive: -0.654 |
| GCAGAAGUUCUACAAUUACTT against Mei4 | inactive: -1.55 |
| GCCUUCAAGUAUUUGGAAGTT against Aff1 | inactive: 0.723 |
| GGAGAUGCCAAAGUUAUGATT against Cmss1 | inactive: -0.751 |

Continued.

| Sequence | z-score |
| --- | --- |
| GUCCCAAGAGGCUCAUUCUTT against Krtap4-13 | inactive: 0.23 |
| CGAUUUCAGCUUAAAGCACTT against Lmo3 | inactive: 0.0353 |
| GGACAAGUUGUUGGACUACTT against Hltf | inactive: -1.02 |
| GCAAGAAGGUUAUUCUAUATT against Atxn3 | inactive: 0.399 |
| GGCUGAAAUUGAACAGUACTT against Atp6v1g1 | inactive: -1.22 |
| GGAUUGAGUGACGACUGACTT against Nova2 | active: 2.25 |
| GCCACCACAAUCAACAUGCTT against Ifitm1 | inactive: -1.4 |
| CCUGGUCAGUCUUACUUCUTT against Rbks | inactive: -1.17 |
| GGACAUUACCUCCUUUGACTT against Tbl3 | inactive: -0.289 |
| AAGACUGAGAGAGUCUUUUTT against Tcte3 | inactive: -0.761 |
| GCUAAGAUUGUCAUGAUGUTT against Bambi | inactive: -1.02 |
| GGAGACAACCUGUACUCAGTT against Zfp352 | active: -3.18 |
| GGGAUGCAGUGACCAUAGATT against Aldh3b1 | inactive: 0.485 |
| CGCAAAUCUCAGGAAAGAATT against Anxa9 | inactive: -0.443 |
| GGUAAGAUUAAAAGACUCATT against Cpsf2 | inactive: 0.994 |
| GCAGGAAGGAGAUUUUAUATT against Tbpl1 | inactive: -1.62 |
| GGCAUCAACUUCAUGCUGATT against Olfr535 | inactive: -0.231 |
| GGAUCUCUUUCUUCACAGUTT against Pcdhgb7 | inactive: -0.0151 |
| GGUCAAAGUACUGAAGCUUTT against Mapre1 | inactive: -1.65 |
| GGACAAAAUCUUUGCUCUATT against Olfr1184 | inactive: 0.239 |
| CCUUCACAAGGACAAGUUUTT against Larp7 | inactive: 0.881 |
| GGUAACAUCCUAUAAAUAGTT against Arl5a | inactive: 0.271 |

| Sequence | z-score |
| --- | --- |
| GGAAACCUUUGAUUGUUCATT against Taar2 | inactive: 1.59 |
| GGCUUGAUUUAUGAAUGUATT against Cacnb2 | inactive: -0.707 |
| CCAGAUGUCAACCAAUAUATT against Best1 | inactive: -0.523 |
| GGAUGGACUCCAGAAAAAUTT against Mmp1b | inactive: 0.51 |
| GGUACUGCUAUGAGAAACUTT against Adam22 | inactive: 0.224 |
| GGACAAGAUUCUAAACUGCTT against Wdr37 | inactive: 1.03 |
| GGACUUGAAAGAUAAAUAGTT against Crx | inactive: 0.163 |
| GCUAACUGAGCUGCCGGAATT against Lrrn3 | inactive: 0.264 |
| GCUUUUGGUACAGGAUGCCTT against 5830411N06Rik | active: -2.68 |
| GCAAGAUCCAGCCCUAUCATT against Usp17lc | inactive: -0.439 |
| GGACACUGGGCUUAGCACUTT against Krt31 | inactive: -0.0893 |
| GGAUCAUUGUUCUCUCAAGTT against Psmg2 | inactive: 0.186 |
| CGUUUGUGGUUAAGGUAGATT against Sh2b1 | inactive: -0.427 |
| CCGUUUCUAUCGAGUGAAATT against Celf2 | inactive: 0.581 |
| GUUGUGCAAUCAACAAGGUTT against Fam98c | active: 2.05 |
| GCUAGUUCUCAUCAGCUACTT against 8030451A03Rik | inactive: 0.68 |
| GCUUGCUCUAUUGCCAAUATT against Crem | inactive: 0.367 |
| GCACAUUCCUAAGACAAUCTT against Sun5 | inactive: 0.168 |
| CGGGAACUCACCGAAAAGATT against Gramd1c | inactive: 1.55 |
| CCAUAUCGAGUACCUCCAATT against Rtn4rl1 | inactive: -0.522 |
| UUCCUCAAUGCUUCCAUUUTT against Olfr1454 | inactive: 1.45 |
| GCAGACAGAUCGCUUCAACTT against Dok4 | inactive: -0.882 |

| Sequence | z-score |
| --- | --- |
| GCUGAUGUAUGGAAUGCUCTT against Trappc1 | inactive: -0.603 |
| CGUUCUUCAGCUAUUCAUUTT against Slc37a3 | inactive: 1.06 |
| CGACCUAUUAGAGAGCAACTT against Zfp248 | active: 2.58 |
| CGCAGUAACCUGUUUGAGCTT against Amz2 | inactive: 1.22 |
| UUCUGUGAUCAUGUCUUCUTT against Tuba1b | inactive: -1.6 |
| GGCUGUAAAACUCUGGUUUTT against Vmn1r195 | active: 2.82 |
| GGUAUCUCUACCUCGAGGATT against Cdk4 | inactive: 0.24 |
| CCAAAAUCGGGAAAGGAAATT against Ldb2 | inactive: -0.00816 |
| GCUACAGAAUCAUACGAUGTT against Zfp521 | inactive: -0.606 |
| GGCAUUAAGUGCUUGCUCATT against AI837181 | inactive: -1.73 |
| GGGCAAUGUUCAGACUCUCTT against Klhl20 | inactive: 0.861 |
| GGACUGUGAUCAGGUUUGUTT against Elk3 | inactive: 0.695 |
| CCGAAUCCUUAAAAUCUGCTT against Zfp78 | inactive: 0.0432 |
| GGACGCAUGGAUCAAAAAATT against Abhd17c | inactive: 0.618 |
| GCCGCUGCACACUUUCUAUTT against Trim65 | inactive: -0.0927 |
| GGUACAGAUCUGGUCCUACTT against Il17rc | inactive: -0.991 |
| GGGCUCACACAGAAAAAUUTT against Cd244a | inactive: -0.685 |
| GAUCAUCCAGCUGAAGCAGTT against Mafg | inactive: -1.35 |
| GCAUAUAUUCACCACUAACTT against Mettl25 | inactive: 0.116 |
